PubChem BioAssay AID1347076 (National Center for Advancing Translational Sciences (NCATS), 2019)
Screen size: about 400,000 compounds; about 13,000 (3.2%) were called active. The shares of active, inactive and inconclusive entries below differ from those in the screen. Calls come from the whole dose curve; as a rule, active = well fitted cell-killing curve with a large enough effect; inconclusive = small, poorly fitted or top-dose-only effect, or effect the other way; inactive = flat fitted curve, though single readings scatter. Potencies beside an inconclusive call are fits to weak or partial responses and may not hold up.
% is set by controls: 0 for no effect and ±100 for the full control effect; potency is the fitted concentration of half-maximal effect.

Assay: qHTS assay for MDR1-selective chemotherapeutics: Primary screen using the drug-selected MDR subline cells KB-V1; note: nearly all actives have a fitted effect of over 60% in size
Settings: KB-V1 MDR cells viability, CellTiter-Glo, 72 h; activity change, negative = cytotoxicity: at 46.1 µM (top of the series)
Procedure, shortened: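 qHTS viability screen in drug-selected KB-V1 MDR cells: 72 h compound treatment at 37 degrees C, ATP luminescence end point.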
With CCOC(=O)C1CCCN(C(=O)C(CCSC)NC(=O)COc2ccccc2)C1 (centres undefined) the Potency was inconclusive: 23.1 µM [cytotoxic, partial curve, poor fit]. With COCCn1c(=NC(=O)c2ccc(S(=O)(=O)N3CCCc4ccccc43)cc2)sc2cc(S(C)(=O)=O)ccc21 the Potency was active: 1.84 µM. For O=C(N1CCOCC1)n1nnc2ccccc21, the Potency was inconclusive: 13 µM [cytotoxic, partial curve, poor fit]. With CN(C)/C(=N\O)c1c(Cl)cccc1Cl the Potency was inconclusive: 32.6 µM [rising, single point]. With Cc1cccc(C(=O)NCCc2nc3ccccc3n2CCC(C)C)c1 the Potency was “inactive”. In the case of O=C(CN1CCCCCC1)NCC1CCCO1 (centres undefined), the Potency is reported as inconclusive: 23.1 µM [rising, single point]. With COc1ccc(C(=O)NCCc2ccccc2F)cc1OC1CCN(C(C)=O)CC1 the Potency was inconclusive: 23.1 µM [cytotoxic, single point]. With COc1ccc(CCNC(=O)/C=C/c2cc(OC)c(OC)c(OC)c2)cc1OC the Potency was inconclusive: 10.3 µM [cytotoxic, partial curve]. With COCCN(C(=O)c1cccc(N2C(=O)CCC2=O)c1)c1nc(-c2ccc([N+](=O)[O-])cc2)cs1 the Potency was inconclusive: 11.6 µM [cytotoxic, partial curve, poor fit]. For N#Cc1ccc(OCC(=O)Nc2ccc3[nH]c(=O)[nH]c3c2)cc1, the Potency was inconclusive: 0.82 µM [rising, full curve]. In the case of O=C1ON=C(c2ccc(Cl)cc2)/C1=C/c1ccc(O)cc1, the Potency is reported as active: 20.6 µM. With Cc1csc(NC(=O)COc2ccc3c(c2)CCC3)n1 the Potency was inconclusive: 29.1 µM [cytotoxic, single point]. With Cc1cccc(NC(=O)CSc2nnc(CNC(=O)c3ccco3)o2)c1C the Potency was inconclusive: 29.1 µM [rising, single point]. With CCCN1CCN(c2nnc(-n3cccc3C(=O)Nc3ccccc3C(F)(F)F)s2)CC1 the Potency was “inactive”. In the case of CC1(C(=O)NCCC(F)(F)F)Cc2c(-c3ccccc3)ccnc2O1 (centres undefined), the Potency is reported as active: 20.6 µM. In the case of CC(C)Cc1ccc(C(C)C(N)=Nc2ccc(O)cc2)cc1 (centres undefined), the Potency is reported as inconclusive: 29.1 µM [cytotoxic, single point]. With CC1=NN(Cc2ccccc2)C(=O)C1C(c1ccc(Cl)cc1)C(C#N)C#N (centres undefined) the Potency was inconclusive: 13 µM [cytotoxic, partial curve, poor fit]. In the case of CCN(CC)S(=O)(=O)c1ccc(N2CCCC2)c(NC(=O)Cc2cc(OC)c(OC)c(OC)c2)c1, the Potency is reported as inconclusive: 8.2 µM [cytotoxic, partial curve]. For CC(C)c1ccc(/C=C2\SC(=O)N(CC(=O)NC3C=CS(=O)(=O)C3)C2=O)cc1 (centres undefined), the Potency was “inactive”. In the case of OC(COc1ccc(OCC(O)CN2CCN(Cc3ccccc3)CC2)cc1)CN1CCN(Cc2ccccc2)CC1 (centres undefined), the Potency is reported as inconclusive: 29.1 µM [cytotoxic, single point]. In the case of CCCS(=O)(=O)N1CCN=C1SCc1cccnc1, the Potency is reported as “inactive”. With CC1=C(C(=O)OC(C)C)C(C2CC=CCC2)NC(=O)N1 (centres undefined) the Potency was inconclusive: 18.4 µM [cytotoxic, single point]. With COC(=O)Cc1cc(=O)[nH]c(/N=C(\N)Nc2cccc(C)c2)n1 the Potency was “inactive”. In the case of CNc1nc(NCCOc2ccccc2Cl)c2sccc2n1, the Potency is reported as inconclusive: 0.651 µM [cytotoxic, partial curve, poor fit]. For Fc1ccccc1-c1nc2c(s1)CCc1onc(-c3ccc(Br)cc3)c1-2, the Potency was inconclusive: 9.2 µM [rising, partial curve, poor fit]. For COc1ccc(OC)c(Nc2nc3ccccc3nc2-n2nc(C)cc2C)c1, the Potency was “inactive”. For COc1ccc(C(C)(C)C)cc1NC(=O)CN(C)C1=NS(=O)(=O)c2ccccc21, the Potency was “inactive”. With CC(=O)Nc1cc2c(cc1NC(=O)Cn1nc(-c3ccccc3)ccc1=O)OCCO2 the activity change, negative = cytotoxicity was inconclusive: 47.3%. For COc1ccc(/C=C/C(=O)N2c3ccccc3Sc3ccc(C(F)(F)F)cc32)cc1, the Potency was inconclusive: 20.6 µM [cytotoxic, single point]. For Cc1nn2c(=O)cc(COc3ccc(/C=C(\C#N)C(=O)Nc4ccccc4C)cc3)nc2s1, the Potency was “inactive”. For COC(=O)c1ccc(CSc2ccc3nnc(-c4ccc(F)cc4)n3n2)o1, the Potency was “inactive”. For CC(CCc1ccco1)NC(=O)CCc1nnc2ccc(NCc3ccc(Cl)cc3)nn12 (centres undefined), the Potency was inconclusive: 0.651 µM [rising, full curve, poor fit]. In the case of O=C(NCC(c1ccco1)N1CCc2ccccc21)c1ccc([N+](=O)[O-])cc1 (centres undefined), the Potency is reported as inconclusive: 9.2 µM [cytotoxic, partial curve]. With O=C(O)c1ccnc(Cl)c1 the Potency was inconclusive: 29.1 µM [rising, single point]. In the case of CNc1ccc(Cl)cc1C(N)=O, the Potency is reported as inconclusive: 29.1 µM [rising, single point]. For O=C(NCC1OCCc2ccccc21)c1ccc(NC(=O)c2ccccc2Cl)cc1 (centres undefined), the Potency was inconclusive: 6.51 µM [cytotoxic, partial curve, poor fit]. In the case of O=C(NNC(=O)C1CC1)c1cccc([N+](=O)[O-])c1, the Potency is reported as inconclusive: 20.6 µM [rising, single point]. For CCN(CC)CCCNC(=O)c1sc2nc(-c3ccc(F)cc3)cn2c1C, the Potency was active: 16.4 µM. In the case of CCCCN1C(=O)c2[nH]nc(-c3ccccc3O)c2C1c1ccc(OCc2ccccc2)c(OC)c1 (centres undefined), the Potency is reported as inconclusive: 23.1 µM [cytotoxic, single point]. In the case of CCOC(=O)C1=C[C@@H](CC)N(S(=O)(=O)c2ccccc2)[C@H]1c1ccccc1, the Potency is reported as inconclusive: 18.4 µM [cytotoxic, single point]. In the case of Cn1cc(S(=O)(=O)N2CCOCC2)cc1C(=O)Nc1ccc(Cl)cc1, the Potency is reported as “inactive”. For CCOc1ccccc1NC(=O)CSc1nnc(Cc2ccc(OC)cc2)c(=O)n1N, the Potency was inconclusive: 8.2 µM [cytotoxic, partial curve]. With CN(CCOc1ccccc1)CC(=O)Nc1ccc(Cl)cc1[N+](=O)[O-] the Potency was inconclusive: 10.3 µM [cytotoxic, partial curve]. In the case of CCOC(=O)c1ccc2ncc(C(=O)OCC)c(NCCCN3CCOCC3)c2c1, the Potency is reported as inconclusive: 4.11 µM [cytotoxic, partial curve]. In the case of Cc1ccc(C(=O)N(CC(=O)Nc2sc(C)c(C)c2C(N)=O)C2CCCC2)cc1, the Potency is reported as inconclusive: 3.26 µM [cytotoxic, full curve, poor fit]. With O=[N+]([O-])c1cccc(C=NNC(=S)NC23CC4CC(CC(C4)C2)C3)c1 the Potency was inconclusive: 29.1 µM [cytotoxic, single point]. For CC(=O)Nc1ccc(Nc2nc(-c3c(C)nc4ccccn34)cs2)cc1, the Potency was inconclusive: 13 µM [cytotoxic, partial curve]. With CC(C)CCNc1nc2c(-c3ccccc3)nnn2c2ccccc12 the Potency was inconclusive: 29.1 µM [cytotoxic, single point]. For COc1ccccc1Nc1nnc(SCC(=O)Nc2nc(-c3ccc(F)cc3)cs2)s1, the Potency was “inactive”. With CCCn1cnnc1CNC(=O)C1CCC(=O)N(CCc2ccc(OC)cc2)C1 (centres undefined) the Potency was inconclusive: 0.92 µM [rising, full curve]. For COc1ccc(S(=O)(=O)N(CC(=O)Nc2ccc(S(=O)(=O)N3CCOCC3)cc2)c2ccccc2)cc1, the Potency was active: 5.17 µM. In the case of CC(=O)NCc1ccc(S(=O)(=O)NC2CCN(Cc3ccccc3)CC2)cc1, the Potency is reported as inconclusive: 18.4 µM [rising, partial curve, poor fit]. In the case of Cc1ccc(C(=O)CSc2nc3cc(C(=O)NC4CCCC4)ccc3c(=O)n2CC2CCCO2)c(C)c1 (centres undefined), the Potency is reported as “inactive”. For COc1cccc(NC(=O)c2oc3ccccc3c2NC(=O)c2ccccc2C)c1, the Potency was “inactive”. With N#Cc1cccc(NC(=O)CCNC(=O)c2ccccc2Cl)c1 the Potency was inconclusive: 23.1 µM [rising, single point]. In the case of Cc1ccc(S(=O)(=O)/N=C2\C=C(NS(=O)(=O)c3ccccc3)C(=O)c3ccccc32)cc1, the Potency is reported as “inactive”. In the case of C=Nc1ccc(/C=C/c2ccnc3ccccc23)cc1, the Potency is reported as inconclusive: 20.6 µM [cytotoxic, single point]. With COc1ccc(CN2CCN(C)CC2)cc1OCc1ccccc1 the Potency was inconclusive: 5.17 µM [cytotoxic, full curve, poor fit]. With Cc1cnc(C(=O)OCC(=O)NCc2cccc(Cl)c2)cn1 the Potency was “inactive”. In the case of CCCC(=O)Nc1ccc(C(=O)NCCc2ccc(F)cc2)cc1, the Potency is reported as active: 14.6 µM. With CSc1ccc(NC(=O)c2cccnc2)cc1C#N the Potency was “inactive”. With Cc1nn(-c2ccccc2)c2nc(C3CC3)cc(C(=O)Nc3cccc(F)c3)c12 the Potency was inconclusive: 29.1 µM [cytotoxic, single point]. In the case of O=C(c1cccc(-c2nnc(-c3ccccc3)o2)c1)N1CCCCCC1, the Potency is reported as “inactive”. For C=C(C)CN1CCN(c2ccc(N3C(=O)CCCC3=O)cc2[N+](=O)[O-])CC1, the Potency was inconclusive: 16.4 µM [cytotoxic, partial curve, poor fit]. In the case of O=C(NCCCN1CCOCC1)c1ccc(/C=C2\Oc3ccccc3N(Cc3ccccc3F)C2=O)cc1, the Potency is reported as “inactive”. With COc1ccc(C(CNC(=O)c2oc3cc(Br)ccc3c2C)N2CCCCC2)cc1 (centres undefined) the Potency was inconclusive: 29.1 µM [rising, single point]. With COc1ccc(-c2csc3ncnc(NCCN4CCOCC4)c23)cc1 the Potency was inconclusive: 29.1 µM [cytotoxic, single point]. In the case of COc1ccc(OC)c(-c2cc(C(=O)Nc3c(C)nn(Cc4ccc(C)cc4)c3C)no2)c1, the Potency is reported as “inactive”. For CN(C)C(CNS(=O)(=O)c1ccc(Cl)cc1F)c1ccco1 (centres undefined), the Potency was active: 18.4 µM.
